US20220324835A1 (Nurix Therapeutics, Inc., priority 2018, published 2022)
Structures were worked out from names or drawings and are uncertain.

Protein sequences, listed by entry. Tags and fused reporters are not part of them. Residues count along the entry.
UniProt Q13191, 36-427 limits assumed: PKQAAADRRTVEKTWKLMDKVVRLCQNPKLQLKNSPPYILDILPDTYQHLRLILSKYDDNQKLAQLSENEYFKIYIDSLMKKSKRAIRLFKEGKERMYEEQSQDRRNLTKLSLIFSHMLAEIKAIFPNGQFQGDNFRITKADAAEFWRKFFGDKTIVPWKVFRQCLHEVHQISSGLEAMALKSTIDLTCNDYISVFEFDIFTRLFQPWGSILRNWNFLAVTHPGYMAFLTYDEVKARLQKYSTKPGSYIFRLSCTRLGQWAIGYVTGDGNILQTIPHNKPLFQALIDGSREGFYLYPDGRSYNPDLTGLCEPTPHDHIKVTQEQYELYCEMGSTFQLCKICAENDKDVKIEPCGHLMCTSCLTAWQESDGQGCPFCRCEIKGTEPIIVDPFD

Assays:
Cbl-b = Cbl-b (Homo sapiens, UniProt Q13191); test: Cbl-b activity assay (Cbl-b inhibition assay), TR-FRET of Cbl-b interaction with UbcH5B-Ub; assay type: biochemical; details: read-out: Cbl-b activity IC50; assay buffer with 100 mM NaCl, 60 nM Src kinase
T-cell [1] = test: IL-2 secretion from T-cells co-stimulated with anti-CD3 and anti-CD28 antibody (Biological Example 2); details: for IL-2 secretion Anti-CD3/Anti-CD28 stimulation: fold change over baseline (anti-CD3/anti-CD28 stimulated T-cells without inhibitor); for IL-2 secretion, Anti-CD3/Anti-CD28 stimulation, fold change over baseline: primary human total T-cells, baseline = anti-CD3/anti-CD28 stimulated cells without inhibitor
T-cell [2] = test: IL-2 secretion from T-cells stimulated with anti-CD3 antibody alone (Biological Example 2); details: for IL-2 secretion Anti-CD3 stimulation: 1 μM Cbl-b inhibitor, fold change over baseline (anti-CD3/anti-CD28 stimulated T-cells without inhibitor)
T-cell [3] = test: CD25 cell surface staining on T-cells co-stimulated with anti-CD3 and anti-CD28 antibody (Biological Example 2); details: for CD25 staining Anti-CD3/Anti-CD28 stimulation: fold change over baseline (anti-CD3/anti-CD28 stimulated T-cells without inhibitor); for CD25 staining, Anti-CD3/Anti-CD28 stimulation, fold change over baseline: primary human total T-cells, baseline = anti-CD3/anti-CD28 stimulated cells without inhibitor
T-cell [4] = test: CD25 cell surface staining on T-cells stimulated with anti-CD3 antibody alone (Biological Example 2); details: for CD25 staining Anti-CD3 stimulation: 1 μM Cbl-b inhibitor, fold change over baseline (anti-CD3/anti-CD28 stimulated T-cells without inhibitor)

With `Cn1cnnc1CC1(c2cccc(N3Cc4c(cc(N5CCN6CCC[C@@H]6C5)cc4C(F)(F)F)C3=O)c2)COC1` the IC50 (Cbl-b) was < 100 nM, the “IL-2 secretion Anti-CD3/Anti-CD28 stimulation” value (T-cell [1]; 0.3 μM Cbl-b inhibitor) was “A (A indicates ≥7.50 fold)” and the “IL-2 secretion Anti-CD3/Anti-CD28 stimulation” value (T-cell [1]; 1 μM Cbl-b inhibitor) was “A (A indicates ≥7.50 fold)”. The “IL-2 secretion Anti-CD3 stimulation” value (T-cell [2]) was “A (A indicates ≥0.201 fold)”, the “CD25 staining Anti-CD3/Anti-CD28 stimulation” value (T-cell [3]; 0.3 μM Cbl-b inhibitor) was “A (A indicates ≥1.76 fold)” and the “CD25 staining Anti-CD3/Anti-CD28 stimulation” value (T-cell [3]; 1 μM Cbl-b inhibitor) was “A (A indicates ≥1.76 fold)”. For the same compound, the “CD25 staining Anti-CD3 stimulation” value (T-cell [4]) was “A (A indicates ≥1.001 fold)”.

`Cn1cnnc1CC1(c2cccc(N3Cc4c(cc(N5CCN6CCC[C@H]6C5)cc4C(F)(F)F)C3=O)c2)COC1` was tested, and the IC50 (Cbl-b) was < 100 nM, the “IL-2 secretion Anti-CD3/Anti-CD28 stimulation” value (T-cell [1]; 0.3 μM Cbl-b inhibitor) was “A (A indicates ≥7.50 fold)” and the “IL-2 secretion Anti-CD3/Anti-CD28 stimulation” value (T-cell [1]; 1 μM Cbl-b inhibitor) was “A (A indicates ≥7.50 fold)”. For the same compound, the “IL-2 secretion Anti-CD3 stimulation” value (T-cell [2]) was “A (A indicates ≥0.201 fold)”, the “CD25 staining Anti-CD3/Anti-CD28 stimulation” value (T-cell [3]; 0.3 μM Cbl-b inhibitor) was “A (A indicates ≥1.76 fold)” and the “CD25 staining Anti-CD3/Anti-CD28 stimulation” value (T-cell [3]; 1 μM Cbl-b inhibitor) was “A (A indicates ≥1.76 fold)”. For the same compound, the “CD25 staining Anti-CD3 stimulation” value (T-cell [4]) was “A (A indicates ≥1.001 fold)”.

`Cn1cnnc1CC1(c2cccc(N3Cc4c(cc(CN5CC6C(C5)C6(F)F)cc4C(F)(F)F)C3=O)c2)COC1` (stereo not drawn) was tested, and the IC50 (Cbl-b) was < 100 nM, the “IL-2 secretion, Anti-CD3/Anti-CD28 stimulation, fold change over baseline” value (T-cell [1]; 0.3 μM compound) was “B (B indicates 5.00-7.50 fold)” and the “IL-2 secretion, Anti-CD3/Anti-CD28 stimulation, fold change over baseline” value (T-cell [1]; 1 μM compound) was “A (A indicates ≥7.50 fold)”. The “IL-2 secretion, Anti-CD3 stimulation, fold change over baseline” value (T-cell [2]; 1 μM compound, primary human total T-cells) was “A (A indicates ≥0.201 fold)”, the “CD25 staining, Anti-CD3/Anti-CD28 stimulation, fold change over baseline” value (T-cell [3]; 0.3 μM compound) was “C (C indicates 1.31-1.50 fold)” and the “CD25 staining, Anti-CD3/Anti-CD28 stimulation, fold change over baseline” value (T-cell [3]; 1 μM compound) was “C (C indicates 1.31-1.50 fold)”. The “CD25 staining, Anti-CD3 stimulation, fold change over baseline” value (T-cell [4]; 1 μM compound, primary human total T-cells, baseline = anti-CD3/anti-CD28 stimulated cells without inhibitor) was “A (A indicates ≥1.001 fold)”.
